Laboratory results published in patent US20100040635A1.
No constants are given. Whether binding was seen depends on the method and setting. Some binding calls cover weakened binding; strength is not graded here.

Chains of the proteins cited; added tags and fusions are not shown. Residues count along the entry.
UniProt Q9WFX3, residues 18-529: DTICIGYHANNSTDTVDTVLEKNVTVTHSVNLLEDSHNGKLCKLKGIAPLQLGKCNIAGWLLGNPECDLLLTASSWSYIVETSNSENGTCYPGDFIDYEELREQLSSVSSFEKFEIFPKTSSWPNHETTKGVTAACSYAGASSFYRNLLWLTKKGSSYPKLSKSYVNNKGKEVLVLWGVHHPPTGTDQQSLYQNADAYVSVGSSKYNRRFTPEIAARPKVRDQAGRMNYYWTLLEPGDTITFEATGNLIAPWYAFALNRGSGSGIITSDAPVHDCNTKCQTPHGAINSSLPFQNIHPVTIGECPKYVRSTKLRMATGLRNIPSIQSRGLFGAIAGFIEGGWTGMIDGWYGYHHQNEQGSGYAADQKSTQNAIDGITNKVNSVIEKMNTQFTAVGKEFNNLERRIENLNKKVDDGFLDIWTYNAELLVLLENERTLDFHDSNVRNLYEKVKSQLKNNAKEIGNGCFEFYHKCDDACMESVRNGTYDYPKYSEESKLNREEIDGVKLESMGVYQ

Target: H1 hemagglutinin of influenza A/South Carolina/1/18 (H1N1) (influenza A virus H1N1 A/South Carolina/1/18) (UniProt Q9WFX3)
Test: IgG ELISA on coated hemagglutinin

Binder	binding
Antibody 2 (antibody, V domains shown) VH: QVQLVQSGAEVKKPGSSVKVSCKTSGGTFSSYAVTWVRQAPGQGLEWMGGIIGMFGTTNYAQKFQGRVTITADELTSTAYMELSSLRSEDTAVYYCARGSYYYESSLDYWGRGTL VL: ETTLTQSPATLSVSPGERATLSCRASQSVSRNLAWYQQKPGQAPRLLIYGASSRATGIPDRFSGSGSGTDFTLTISRLEPEDFAVYYCQQYGSSSITFGQGTRLEIKR	binds
Antibody 3 (antibody, V domains shown) V domain 1: EVQLVQSGAEVKKPGSSVKVSCKTSGGTFSSYAVTWVRQAPGQGLEWMGAIIGMFGTTNYAQKFQGRVTITADELTSTAYMELSSLRSDDTAVYYCARGSYYYESSLDYWGKGTL V domain 2: QSVLTQPPSVSGAPGQRVTISCGGSRSNIGAGYDVHWYQQFPGTAPKVVIYGNNNRPSGVPDRFSGSKSGTSASLAITGLQAEDEANYYCQSYDTNLGGSIFGGGTQVTVL	binds
